Data taken from the supplement of paper PMC12425257.
± gives the standard deviation of the averaged measurements. The list shows a part of the results.

Tested on: Madurella mycetomatis MM55
Test: metabolic activity (growth) relative to DMSO growth control; higher = more fungal growth
Details: 10 µM

Compound	metabolic activity [%]
CCc1c(-c2nonc2N)nc2c(C#Cc3ccccc3)ccc(N3C[C@H](O)[C@@H](O)C3)n12	115 ± 5.1
O=C(NOC[C@H](O)CO)c1ccc(F)c(F)c1Nc1ccc(I)cc1F	90.8 ± 38
CN(C)c1cc2c(Nc3ccc4c(cnn4Cc4ccccc4)c3)ncnc2cn1	78.5 ± 1.9
Nc1nc(-c2ccc3c(N)n[nH]c3c2)cc(N2CCC[C@@H](C(=O)Nc3ccccc3)C2)n1	101 ± 22
C/C(Nc1ccc(S(N)(=O)=O)cc1)=C1/C(=O)Nc2ccccc21	112 ± 11
NS(=O)(=O)c1ccc(N/N=C2\C(=O)Nc3ccc(Cl)cc32)cc1	96.7 ± 17
CCOc1cc(C(=O)N2CCC(N3CCN(C)CC3)CC2)ccc1Nc1ncc2c(n1)N(C1CCCC1)c1ccccc1C(=O)N2C	90.3 ± 14
Cc1cn(-c2cc(NC(=O)c3ccc4c(c3)CN(c3cncnc3)C[C@@H]4C)cc(C(F)(F)F)c2)cn1	71.4 ± 47
CC(C)Nc1ncnc2cc(OCc3cccc(S(C)(=N)=O)c3)c(Br)cc12 (configuration not stated)	108 ± 1.1
Cc1ccc(-n2nc(C(C)(C)C)cc2NC(=O)Nc2ccc(OCCN3CCOCC3)cc2)cc1	121 ± 12
CC(C)(C)c1ccc(C(=O)Nc2cn3cc(-c4cccnc4)ccc3n2)cc1	119 ± 9.8
CN1CCN(c2nc(C3=C(c4c[nH]c5ccsc45)C(=O)NC3=O)c3ccc(F)cc3n2)CC1	118 ± 18
CC(C)N1CC(=O)N(C)c2cnc(Nc3cccc(S(=O)(=O)CCN4CCOCC4)c3)nc21	120 ± 26
Cc1ccc(C(=O)NCC(N)=O)cc1-n1c(C)cc(OCc2ccc(F)cc2F)c(Br)c1=O	102 ± 3.7
COc1cc(N2CCN(C)CC2)ccc1Nc1ncc(Cl)c(Oc2cccc(NC(=O)CC(F)(F)F)c2)n1	103 ± 7.1
COc1cc2nccc(Nc3ccc(OCc4ccc(NC(C)=O)cc4)cc3)c2cc1OC	72.6 ± 17
NS(=O)(=O)c1ccc(N/N=C2\C(=O)Nc3ccc(C(=O)NCCc4c[nH]cn4)cc32)cc1	105 ± 5.5
CC(C)c1nnc2ccc(-c3c(-c4ccc(F)cc4F)nc4occn34)cn12	113 ± 5.8
COC(=O)C(NC(=O)NC1CCN(c2ccnc(Nc3ccc(F)cc3)n2)C1)c1ccccc1 (configuration not stated)	109 ± 15
c1ccc(-c2cc3ccncc3cc2OC2CCNCC2)cc1	93.7 ± 5
COC(=O)c1c(-c2ccccc2)c2cc(OC)ccc2c(=O)n1Cc1ccccc1	128 ± 11
CSc1cccc(-c2cc3c(SCCC(=O)O)ncnc3s2)c1	102 ± 25

Some values from the list:
metabolic activity [%], CSc1cccc(-c2cc3c(SCCC(=O)O)ncnc3s2)c1 reads 102 ± 25
metabolic activity [%], c1ccc(-c2cc3ccncc3cc2OC2CCNCC2)cc1 reads 93.7 ± 5
